The values below come from US20240115721A1.

Results are given in words; binding and its absence hold for the method and conditions named. A result given as binding can be weak or reduced; the word gives no strength.

In this test the target is Histidine-tagged DLL3 antigen (DLL3-His) (Homo sapiens (Human)). Nature of the test: Carterra array SPR epitope binning with DLL3-His.

B1: 2-C8-A (antibody, V domains shown)
VH: EVQLVESGGGLVQPGGSQRLSCAASGFTFSSYWMNWVRQAPGKGLEWVANIKEDGSEKYYVDSVKGRFTISRDNAKNSLYLQMNSLRAEDTAVYYCARDPGWAPFDYWGQGTLVTVSS
VL: DIQMSQSPSSLSASVGDRVTITCRASQGISNYLAWFQQKPGKAPKSLIYAASSLQSGVPSKFSGSGSGTDFTLAISSLQPEDFATYYCQQYNSFPYTFGQGTTLEIK
Regarding B1, the binding entry is given as “binds”.
